Our source for the binding values is doi:10.1101/2021.04.13.439701.

Amino acid sequences for entries named in this document (tags omitted).
UniProt O95817: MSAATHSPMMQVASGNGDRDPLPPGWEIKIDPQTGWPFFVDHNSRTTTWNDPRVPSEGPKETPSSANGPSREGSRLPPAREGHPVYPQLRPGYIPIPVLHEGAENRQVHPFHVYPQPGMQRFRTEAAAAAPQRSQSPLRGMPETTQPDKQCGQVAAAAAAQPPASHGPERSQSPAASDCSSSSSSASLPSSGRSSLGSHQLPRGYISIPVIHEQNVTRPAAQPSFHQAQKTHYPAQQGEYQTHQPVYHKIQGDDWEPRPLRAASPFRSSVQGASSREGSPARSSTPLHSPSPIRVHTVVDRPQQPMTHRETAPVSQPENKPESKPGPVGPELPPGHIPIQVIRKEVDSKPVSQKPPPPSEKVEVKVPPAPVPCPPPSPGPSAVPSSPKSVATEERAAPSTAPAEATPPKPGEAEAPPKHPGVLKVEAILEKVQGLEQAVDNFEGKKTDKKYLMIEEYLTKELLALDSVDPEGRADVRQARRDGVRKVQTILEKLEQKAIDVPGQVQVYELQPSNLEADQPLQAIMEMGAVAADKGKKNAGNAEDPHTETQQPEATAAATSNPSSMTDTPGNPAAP
UniProt Q9BQI3: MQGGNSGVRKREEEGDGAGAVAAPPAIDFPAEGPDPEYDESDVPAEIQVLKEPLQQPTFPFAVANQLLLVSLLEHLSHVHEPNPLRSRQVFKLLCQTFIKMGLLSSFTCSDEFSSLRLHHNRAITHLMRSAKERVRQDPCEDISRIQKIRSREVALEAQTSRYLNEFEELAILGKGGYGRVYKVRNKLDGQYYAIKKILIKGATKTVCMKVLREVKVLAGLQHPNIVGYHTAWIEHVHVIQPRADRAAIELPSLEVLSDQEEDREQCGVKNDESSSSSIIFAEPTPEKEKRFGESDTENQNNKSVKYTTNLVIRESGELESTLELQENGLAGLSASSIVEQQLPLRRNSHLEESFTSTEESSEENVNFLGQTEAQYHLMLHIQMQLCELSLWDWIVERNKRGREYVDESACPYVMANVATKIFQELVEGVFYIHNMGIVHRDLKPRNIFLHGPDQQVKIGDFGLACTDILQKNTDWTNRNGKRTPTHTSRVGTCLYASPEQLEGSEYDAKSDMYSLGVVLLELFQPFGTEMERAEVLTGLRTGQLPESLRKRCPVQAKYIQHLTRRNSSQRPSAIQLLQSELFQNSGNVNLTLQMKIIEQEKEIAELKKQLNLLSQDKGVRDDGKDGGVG

This assay deals with N-terminally His-tagged Bag3 Full length (UniProt O95817). Put plainly: pull-down.

These are yes or no findings as the source states them, for the method shown. Binding seen in cells or lysates may run through a third protein. Some results given as binding are weak or reduced against the parent protein; the word gives no strength.

For the substance “HRI (EIF2AK1), heme-responsive eIF2α kinase (from UniProt Q9BQI3 1-630) (enzyme)”, the binding result was “binds”.
